Screen size: about 320,000 compounds; about 22,000 (6.9%) were called active. The call rests on the fitted dose curve; in most records, active means well fitted inhibition curve with a large enough effect; inconclusive means small, poorly fitted or top-dose-only effect, or another doubt; inactive means no such curve, though single readings can be large or run the other way. The inconclusive results got no clear call from the source. Potencies of inconclusive entries are doubtful fits and often do not repeat.
experiment: Primary qHTS for delayed death inhibitors of the malarial parasite plastid, 96 hour incubation; details: P. falciparum luciferase reporter growth; series mostly up to 28.7 µM
From the text: The goal of this screen is to discover new antimalarial compounds that act by inhibiting the development of the apicoplast in the malarial parasite Plasmodium falciparum. The biochemical processes that make this organelle essential for erythrocytic stage parasites are not well understood. However, antibiotics such as azithromycin and tetracycline, which target the apicoplast translational machinery, have a potent antimalarial effect.
We have developed a cell-based assay that measures parasite growth based on the expression of an integrated copy of a firefly luciferase reporter. To detect small molecules that cause this "delayed death" phenotype, erythrocytes infected with the luciferase-expressing parasites were incubated with compounds for either one or two generations, corresponding to 48 and 96 hours, respectively. Compounds that inhibit parasite growth in the second generation, but not the first, should be enriched in antimalarials that target the apicoplast. Growth inhibition is detected by a decrease in luciferase activity.
Assay Provider: David Fidock and Eric Ekland, Columbia University
Keywords: NIH Roadmap, MLPCN, MLI, MLSMR, qHTS, NCGC, qHTS, malaria, luciferase, viability
Four microliters of infected erythrocytes (2% hematocrit, 0.05% parasitemia final concentration) in culture medium were dispensed and the plates incubated for 96 hours at 37 C in 5% CO2. Two microliters of luciferase detection reagent was added and luminescence was detected by a ViewLux (PerkinElmer) reader.
Potency means the concentration at half of the fitted maximal effect.

Question: Which Potency does the source give for CCOc1cc(/C=C2/C(=N)N3C(=NC2=O)SN=C3S(C)(=O)=O)ccc1OS(=O)(=O)c1ccccc1 here?
Answer: inconclusive: 11.7 µM [inhibitor, single point]

Question: For Cc1cc(C)cc(-n2cccc2/C=C2/C(=N)N3C(=NC2=O)SN=C3S(C)(=O)=O)c1, which Potency is on record?
Answer: inconclusive: 2.33 µM [inhibitor, single point]

Question: With Cc1cc(N2C(=O)C(O)=C(C(=O)c3cc4ccccc4o3)C2c2cccc(Br)c2)no1 (stereo not given) as the compound, how does the Potency read?
Answer: inconclusive: 13.1 µM [inhibitor, single point]

Question: Which Potency does the source give for Cc1cc(N2C(=O)C(O)=C(C(=O)c3cc4ccccc4o3)C2c2ccc(Cl)cc2)no1 (stereo not given) here?
Answer: inconclusive: 18.5 µM [inhibitor, single point]

Question: With O=C(COc1ccc(Cl)cc1)Nc1cc(NC(=O)COc2ccc(Cl)cc2)cc(C(=O)O)c1 as the compound, how does the Potency read?
Answer: inconclusive: 18.5 µM [inhibitor, single point]
